{"source": "paper PMC13196150", "target": "RAB5 (human (endogenous in T-REx-293))", "experiment": "co-IP; mitochondria-enriched fractions of T-REx-293 cells expressing GLUT10/V5; IP with anti-RAB5 antibodies against control IgG; immunoblot for V5, RAB5 and TIM50", "note": "Results are given in words; binding and its absence hold for the method and conditions named. In cells and extracts the contact can be indirect. Binding calls can cover weak binding; strength is not graded here. Sequences can lack the tags named with a protein."}
{"binder": "GLUT10/V5 (glucose transporter 10, V5-tagged) (protein, UniProt Q8VHD6 1-536) MGLRPAVLLLCASVSLLGGLTFGYELAVISGALLPLQLNFGLSCLEQELLVGSLLLGALLASLVGGFLIDCYGRRRAILGSNAVLLAGSLILGLASSLPWLLLGRLSVGFAISLSSMACCIYVSELVGPRQRGVLVSLYEVGITVGILFSYGLNYVLAGSPWGWRHMFGWAAAPALLQSLSLFLLPAGAEGTAAPKDLIPLQGRETSKPGLVKPQYSFLDLFRAQDGMWSRTVVGLGLVLFQQLTGQPNVLYYASTIFRSVGFHGGSSAVLASVGLGTVKVAATLVATGLVDRAGRRVLLLFGCALMALSVSGIGLVSFAVSLDSGPSCLATSNASQQVDLPGSSGLLVRSSLPPVLHTNGDQGQLVLSVTERPIHPVITASLGPVLNTASPVPTSPILEHTLLCWSALVCMMVYVSAFSVGFGPVTWLVLSEIYPAEIRGRAFAFCSSFNWAANLFISLSFLDLIGAIGLAWTFLLYGLTAVLGLAFIYLLVPETKGQSLAEIEQQFQTSRFPLNFGHRQRIGIQYHRLDVSSAS", "values": [{"measurement": "binding", "result": "binds"}]}
